Laboratory results: article PMC9839713, “Arabidopsis DXO1 activates RNMT1 to methylate the mRNA guanosine cap” (Nature Communications, 2023)
These are yes or no findings as the source states them, for the method shown. Where a sequence is shown, tags or fusion partners need not be part of it.

Biological target: BD-cDXO1 (C-terminal part of DXO1 without the N-terminal extension) (Arabidopsis thaliana)
Assay: two-hybrid; pairwise: one protein as BD fusion (pGBKT7), the other as AD fusion (pGADT7) in yeast Y2H Gold; growth on -Leu -Trp -His -Ade with AbA (and X-alpha-Gal in some), 3 days at 30 °C

binding: no binding
B1: GST-RNMT1 (natural protein, Arabidopsis thaliana, UniProt Q9LHQ7 1-370, looked up)
chain: MKRGFSDSPSSSAPPPSSRFKSNPEGDSQFLEDETTKNFARKVADHYSRRTNQTLEEREASPIIHLKKLNNWIKSVLIQLYARPDDAVLDLACGKGGDLIKWDKARIGYYVGIDIAEGSIEDCRTRYNGDADHHQRRKKFSFPSRLLCGDCFEVELDKILEEDAPFDICSCQFAMHYSWTTEARARRALANVSALLRPGGVFIGTMPDANVIIKKLREAEGLEIGNSVYWIRFGEEYSQKKFKSSSPFGIEYVFHLEDAVDCPEWIVPFNVFKSLAEEYDLELVFVKNSHEFVHEYMKKPEFVELMRRLGALGDGSNDQSTLSADEWEAAYLYLSFVLRKRGESDGARRSGRRKNGKMNLSKDDVLYIDS
notes: The methods name a 'GST-DXO1' fusion in pGEX-4T-1 and RNMT1 in pET28a, while results, legend and pull-down methods use GST-RNMT1; In the functional rows the RNMT1 was the recombinant protein from pET28a (6X His); also called GST-tagged RNMT1; source: E. coli BL21 Rosetta, purified (GST agarose beads); not shown: GST, N-terminal, kept
